The results in this text go back to PMC6838142, “Nano-Antagonist Alleviates Inflammation and Allows for MRI of Atherosclerosis” (Nanotheranostics, 2019).

The chains behind the UniProt entries cited, without tags or fusion partners. Where a name states a change or a piece, a line headed by the entry shows the natural chain unless it says otherwise. Residues count along the entry.
UniProt P41597: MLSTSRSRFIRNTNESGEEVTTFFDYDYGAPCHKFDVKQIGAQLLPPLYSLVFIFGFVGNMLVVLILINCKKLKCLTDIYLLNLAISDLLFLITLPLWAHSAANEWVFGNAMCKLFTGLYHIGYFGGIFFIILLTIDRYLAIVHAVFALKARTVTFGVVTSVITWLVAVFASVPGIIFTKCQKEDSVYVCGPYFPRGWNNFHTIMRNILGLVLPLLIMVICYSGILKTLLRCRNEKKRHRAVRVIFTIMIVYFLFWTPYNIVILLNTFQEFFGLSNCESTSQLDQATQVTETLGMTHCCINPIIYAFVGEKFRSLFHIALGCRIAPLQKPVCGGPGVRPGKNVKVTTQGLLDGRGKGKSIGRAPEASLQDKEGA
UniProt P13500, residues 24-99: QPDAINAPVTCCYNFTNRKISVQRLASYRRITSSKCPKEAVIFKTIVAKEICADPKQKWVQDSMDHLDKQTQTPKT

The test has as its target recombinant CCR2 protein (CC chemokine receptor 2) (UniProt P41597). Description: ELISA; recombinant CCR2 coated at 2 µg/mL on clear plates; recombinant human CCL2 at varying concentrations in PBS added together with 1 mM free peptide (in dimethylformamide), 1 h at room temperature; detected with biotin anti-MCP-1 antibody and streptavidin-HRP; both purified.

These are yes or no findings as the source states them, for the method shown. Binding can be weak; no strength is given.

For the substance “recombinant human CCL2 (CC chemokine ligand 2) (from UniProt P13500 24-99)”, the binding result is recorded as “binds”.
